Assay results from patent US20190167771.

Sequences of proteins named here, by UniProt entry; tags and fusion partners are left off.
UniProt P49591, whole entry S101D/S241D: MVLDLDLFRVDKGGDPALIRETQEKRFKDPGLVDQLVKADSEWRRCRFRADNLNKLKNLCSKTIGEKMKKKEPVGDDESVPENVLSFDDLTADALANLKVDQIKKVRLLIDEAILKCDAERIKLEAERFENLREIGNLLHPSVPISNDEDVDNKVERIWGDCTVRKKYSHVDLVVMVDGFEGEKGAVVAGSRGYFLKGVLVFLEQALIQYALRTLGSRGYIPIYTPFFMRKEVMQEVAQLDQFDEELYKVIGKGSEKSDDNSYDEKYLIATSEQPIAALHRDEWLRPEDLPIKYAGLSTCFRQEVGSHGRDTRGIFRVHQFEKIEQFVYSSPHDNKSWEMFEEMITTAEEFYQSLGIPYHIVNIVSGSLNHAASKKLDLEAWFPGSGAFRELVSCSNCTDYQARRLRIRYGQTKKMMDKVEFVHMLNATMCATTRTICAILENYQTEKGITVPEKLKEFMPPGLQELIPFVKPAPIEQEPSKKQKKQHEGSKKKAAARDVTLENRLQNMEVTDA

Biological target: SerRS S101D/S241D (Homo sapiens) (UniProt P49591)
Experiment: EMSA
Details: phosphomimetic; binding attenuated vs wild type; same buffer; purified recombinant protein; protein details: C-terminal His6; label: 5'-32P

“GGCGGGGCGGAGCCATGCGCCCCCCCC (double strand) [VEGFA promoter 27-bp SerRS site]”: binds more weakly.

A weaker result is weaker than the reference pair of the same experiment.
